“And” between values parts separate entries of the source, which are not always exact repeats. Equal values may be shown once. This is one part of the list. Shown are side measurements of this screen, not its main read-out; they come without a call.
Target: Estrogen receptor (Homo sapiens) (UniProt P03372)
Test: blockers of coactivator recruitment to ERα – biochemical, LOPAC library, TR-FRET, primary screen (AID 694);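 also: receptor was agonist-bound with estradiol present during the assay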
Details: TR-FRET ERalpha-coactivator peptide binding, at 15 µM, stronger effect = higher value

Chains of the proteins cited; added tags and fusions are not shown.
UniProt P03372, whole entry, looked up: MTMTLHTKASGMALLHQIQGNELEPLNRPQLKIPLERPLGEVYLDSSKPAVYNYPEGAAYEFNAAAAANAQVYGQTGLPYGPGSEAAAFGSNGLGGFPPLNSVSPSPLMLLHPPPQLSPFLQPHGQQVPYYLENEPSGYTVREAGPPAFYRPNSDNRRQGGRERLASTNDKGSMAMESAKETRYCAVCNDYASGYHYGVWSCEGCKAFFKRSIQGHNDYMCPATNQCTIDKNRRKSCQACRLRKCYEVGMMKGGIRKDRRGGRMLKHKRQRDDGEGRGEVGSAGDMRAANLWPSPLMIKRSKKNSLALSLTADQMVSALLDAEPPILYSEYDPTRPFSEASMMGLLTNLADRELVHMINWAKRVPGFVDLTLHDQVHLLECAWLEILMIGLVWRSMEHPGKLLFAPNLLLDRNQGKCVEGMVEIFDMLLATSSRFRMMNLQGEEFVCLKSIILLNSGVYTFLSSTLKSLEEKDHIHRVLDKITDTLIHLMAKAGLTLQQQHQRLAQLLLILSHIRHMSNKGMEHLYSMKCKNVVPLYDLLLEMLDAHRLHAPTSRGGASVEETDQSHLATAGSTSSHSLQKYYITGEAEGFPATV

Row | SMILES | inhibition
1 | COc1ccc2c(c1)[C@@]13CCCC[C@H]1[C@@H](C2)NCC3 | 1.72%
2 | CC(C)[C@@]1(NC(=O)[C@@H]2C=C3c4cccc5[nH]cc(c45)C[C@H]3N(C)C2)O[C@@]2(O)[C@@H]3CCCN3C(=O)[C@H](Cc3ccccc3)N2C1=O | 4.96%
3 | C[C@@H]1O[C@@H](O[C@H]2C[C@@H](O)[C@]3(CO)[C@@H]4C(CC[C@]3(O)C2)[C@@]2(O)CC[C@H](C3COC(=O)C3)[C@@]2(C)C[C@H]4O)[C@H](O)[C@H](O)[C@H]1O (stereo not given in full) | 6.85%
4 | C/C=C(/C)C(=O)O[C@H]1C(C)=C2[C@H]([C@@H]1OC(=O)CCCCCCC)[C@@](C)(OC(C)=O)C[C@H](OC(=O)CCC)[C@@]1(O)[C@H]2OC(=O)[C@@]1(C)O | 5.75%
5 | CCCN(CCC)[C@H]1CCc2c(F)ccc(O)c2C1 | 6.93%
6 | CCCC[N+]1(C)C2CC(OC(=O)[C@H](CO)c3ccccc3)CC1C1OC12 (stereo not given in full) | 7.8%
7 | c1ccc2c(c1)OCC(C1=NCCN1)O2 (stereo not given) | 4.53%
8 | O=C(O)c1nn(Cc2ccc(Cl)cc2Cl)c2ccccc12 | 6.7%
9 | CC(C)(C)c1cc(C=C(C#N)C#N)cc(C(C)(C)C)c1O | 0.27%
10 | NC(N)=Nc1ccc2[nH]c3c(c2c1)C[C@@]1(O)[C@H]2Cc4ccc(O)c5c4[C@@]1(CCN2CC1CC1)[C@H]3O5 | 5.08%
11 | CCOC(=O)c1ncn2c1[C@@H]1CCCN1C(=O)c1cc(OC)ccc1-2 | -1.26%
12 | CCC1(C2=NCCN2)Cc2ccccc2O1 (stereo not given) | 2.56%
13 | NC(CCP(=O)(O)O)C(=O)O (stereo not given) | -8.63%
14 | COc1ccc2c(c1O)-c1cccc3c1[C@@H](C2)N(C)CC3 | -0.06%
15 | C[N+]1(C)CCc2cc3c(cc2[C@H]1[C@@H]1OC(=O)c2c1ccc1c2OCO1)OCO3 | -4.51%
16 | O=c1[nH]oc2c1CCNC2 | 0.3%
17 | COc1cc(C(O)CN)ccc1O (stereo not given) | 1.94%
18 | CC(C)Oc1cccnc1N(C)C1CCN(Cc2ccccc2)CC1 | 5.57%
19 | COC[C@H]1OC(=O)c2coc3c2[C@@]1(C)C1=C(C3=O)C2CCC(=O)[C@@]2(C)C[C@H]1OC(C)=O (stereo not given in full) | 1.52%
20 | O=C(CCCN1CCC2(CC1)C(=O)NCN2c1ccccc1)c1ccc(F)cc1 | 4.27%
21 | C=CCN1CC[C@]23c4c5ccc(O)c4O[C@@H]2/C(=N/N=C2\CC[C@@]4(O)C6Cc7ccc(O)c8c7[C@@]4(CCN6CC=C)[C@@H]2O8)CC[C@@]3(O)C1C5 | 0.72%
22 | CN1C2CCC1CC(OC(c1ccccc1)c1ccc(Cl)cc1)C2 (stereo not given) | -4.18%
23 | CCCn1c(=O)c2[nH]c(C3CCCC3)nc2n(CCCOC(=O)c2ccc(S(=O)(=O)F)cc2)c1=O | -5.9%
24 | CCCCCCC(C)(C)c1ccc([C@@H]2C[C@H](O)CC[C@H]2CCCO)c(O)c1 | 0%
25 | COc1cc(CC(C)N)c(OC)cc1I (stereo not given) | 7.38%

Row | SMILES | inhibition
26 | Cc1sc2ccccc2c1CC1=NCCN1 | -1.03%
27 | C[N+](C)(C)CCOC(=O)CBr | -3.78%
28 | CCCN(CCC)C(=O)Cc1c(-c2ccc(Cl)cc2)nc2c(Cl)cc(Cl)cn12 | 2.19%
29 | CCCN(CCC)[C@@H]1CCc2c(F)ccc(O)c2C1 | 5.68%
30 | NNCc1cccc(O)c1 | -3.13%
31 | NC(CP(=O)(O)O)C(=O)O (stereo not given) | -7.11%
32 | CN1CCc2cc(O)cc3c2[C@H]1Cc1ccc(O)c(O)c1-3 | 13.8%
33 | C[Se]C[C@H](N)C(=O)O | 0.64%
34 | CCCN1CCC[C@@H](c2cccc(C#N)c2)C1 | -1.43%
35 | COC(=O)N1CCN(C(=O)Cc2ccc(Cl)c(Cl)c2)C(CN2CCCC2)C1 (stereo not given) | 0.99%
36 | NCC#Cc1ccccc1 | -1.26%
37 | COc1ccc2[nH]cc(CCN(C)C)c2c1 | -5.83%
38 | C[N+]1(C)C2CC(OC(=O)[C@H](CO)c3ccccc3)CC1C1OC12 (stereo not given in full) | -3.05% and 2.99%
39 | CC(C)NC(C)Cc1ccc(I)cc1 (stereo not given) | 15.3%
40 | O=c1c2ccccc2[se]n1-c1ccccc1 | 3.15%
41 | CCCN(CCC)C1Cc2cc(OC)c(OC)cc2C1 | -0.45%
42 | C[N+]1(C)C2CCC1CC(OC(=O)C(CO)c1ccccc1)C2 (stereo not given) | -3.36% and -5.87%
43 | S=C=Nc1cccc(C2(N3CCCCC3)CCCCC2)c1 | 1.91%
44 | CC12NC(Cc3ccccc31)c1ccccc12 (stereo not given) | -2.5%
45 | CN[C@@H](C)[C@H](O)c1ccccc1 | 4.61%
46 | CN1CCc2cccc(Cl)c2CC1 | -4.25%
47 | NC(CCCCCP(=O)(O)O)C(=O)O (stereo not given) | -6.11%
48 | NC(=O)c1cc(N2CC2)c([N+](=O)[O-])cc1[N+](=O)[O-] | -4.25%
49 | CP(=O)(O)C1=CCNCC1 | 3.24%
50 | C[C@@H]1O[C@H](C[N+](C)(C)C)C[C@H]1O | 2.5%

Row | SMILES | inhibition
51 | N#CC(C#N)=Cc1ccc(O)c(O)c1 | 16%
52 | COc1ccc2[nH]c3c(c2c1)CCNC3 | -6.99%
53 | NC(=O)CI | -0.5%
54 | CCN(CCCl)Cc1ccccc1Br | -3.72%
55 | CCN(CC)C(=O)N[C@@H]1C=C2c3cccc4[nH]cc(c34)C[C@H]2N(C)C1 | 3.2%
56 | CNC(=O)OCC[N+](C)(C)C | 4.41%
57 | CC(N)C(=O)OC(C)(C)Cc1ccc(Cl)cc1 (stereo not given) | -1.43%
58 | Oc1ccc2c3c1O[C@H]1c4oc5ccccc5c4C[C@@]4(O)C(C2)N(CC2CC2)CCC314 (stereo not given in full) | 1.58%
59 | CP(=O)(O)CCCN | -7.67%
60 | C#CCOC(=O)C1=CCCN(C)C1 | -4.44%
61 | O=C(Cc1ccc(Cl)c(Cl)c1)N1CCCCC1CN1CCCC1 (stereo not given) | 2.73%
62 | CNCC(O)c1ccc(O)cc1 (stereo not given) | 8.11%
63 | CCCn1c(C)c(C(=O)c2ccc3ccccc3c2)c2ccccc21 | -0.17%
64 | O=C(OC1CCN(CCCl)CC1)C(c1ccccc1)c1ccccc1 | -6.69%
65 | c1ccc(CCCN2CCN(CCOC(c3ccccc3)c3ccccc3)CC2)cc1 | 2.14%
66 | c1ccc(C2CC2)c(OCC2=NCCN2)c1 | 0.43%
67 | NCC(CP(=O)(O)O)c1ccc(Cl)cc1 (stereo not given) | 1.97%
68 | N#CC(C#N)=Cc1ccc([N+](=O)[O-])c(O)c1 | 10.5%
69 | O=S1(=O)N(CCN2CC=C(c3c[nH]c4cc(F)ccc34)CC2)c2cccc3c2N1CCC3 | -1.49%
70 | CCn1cnc2c(Nc3cccc(Cl)c3)nc(N[C@@H]3CCCC[C@@H]3N)nc21 | 1.14%
71 | CN1CCN(c2ccc3ccccc3n2)CC1 | 2.37%
72 | CCCCCCCCC(=O)NCc1ccc(O)c(OC)c1 | -5.85%
73 | NCCc1c[nH]c2ccc(C(N)=O)cc12 | -0.7%
74 | Nc1ccc(CCN2CCN(c3cccc(C(F)(F)F)c3)CC2)cc1 | -7.56%
75 | CC(=O)NCCc1c[nH]c2ccccc12 | 2.72%

Some of the entries so far, as tab-separated lines.
Row	SMILES	inhibition
8	O=C(O)c1nn(Cc2ccc(Cl)cc2Cl)c2ccccc12	6.7%
17	COc1cc(C(O)CN)ccc1O (stereo not given)	1.94%
18	CC(C)Oc1cccnc1N(C)C1CCN(Cc2ccccc2)CC1	5.57%
19	COC[C@H]1OC(=O)c2coc3c2[C@@]1(C)C1=C(C3=O)C2CCC(=O)[C@@]2(C)C[C@H]1OC(C)=O (stereo not given in full)	1.52%
70	CCn1cnc2c(Nc3cccc(Cl)c3)nc(N[C@@H]3CCCC[C@@H]3N)nc21	1.14%
